Values of other authors in patent US20060258599A1, “Methods and composition for the treatment of cystic fibrosis and related illnesses” (priority 2005, published 2006).

Tested on: Hepa 1c1c7 murine hepatoma cells
Conditions: cited from earlier work

SMILES	conjugation to reduced glutathione (GSH) within cells
S=C=NCc1ccccc1 [BITC, benzyl isothiocyanate]	conjugated to reduced glutathione (GSH)
C[S+]([O-])CCCCN=C=S (centres unmarked) [sulforaphane]	conjugated to reduced glutathione (GSH)
